The values that follow come from patent WO2015103549A1.

These are yes or no findings as the source states them, for the method shown. For part of these data: A result given as binding can be weak or reduced; the word gives no strength.

Assay [1] deals with HIV CN54 (clade C) gp120 (HIV-1). The assay can be described thus: ELISA, antigen coated at 2 ug/ml. Background: An ELISA detects its analyte on a solid surface through an enzyme-linked reagent.
The target of assay [2] is HIV 96ZM651 (clade C) gp120 (HIV-1). The assay can be described thus: ELISA, antigen coated at 2 ug/ml.
For assay [3], the target named is HIV CN54 (clade C) gp140 monomer (HIV-1). Description: ELISA, antigen coated at 2 ug/ml.
In another assay the target is ribonucleoprotein. Description: condition: A positive response is >120 units; 50, 25, 12.5 and 6.25 ug/ml assayed; Luminex AtheNA Multi-Lyte ANA test.
The target in assay [4] is Sjogren's syndrome antigen A. The description is as above.
For assay [5], the target named is HIV JRFL Env on VLPs (HIV-1). Description: ELISA on HIVJRFL VLPs.

B1: 35022 antibody (antibody, V domains shown)
VH: QGQLVQSGAELKKPGASVKISCKTSGYRFNFYHINWIRQTAGRGPEWMGWISPYSGDKNLAPAFQDRVIMTTDTEVPVTSFTSTGAAYMEIRNLKFDDTGTYFCAKGLLRDGSSTWLPYLWGQGTLLTVSS
VL: QSVLTQSASVSGSLGQSVTISCTGPNSVCCSHKSISWYQWPPGRAPTLIIYEDNERAPGISPRFSGYKSYWSAYLTISDLRPEDETTYYCCSYTHNSGCVFGTGTKVSVL
With B1, the binding entry in assay [1] was “no binding”; in assay [2], “no binding”; in assay [3], “no binding”; with ribonucleoprotein, “no binding”; in assay [4] it was “no binding”; in assay [5], “binds”.
